Results deposited as PubChem BioAssay AID1259308 (NCATS, 2017).
Assay: 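Knock-downs that increase output of a recombinant reporter protein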 (primary screen). Cells: human HEK293 embryonic kidney cells stably expressing firefly luciferase (HEK-CMV-Luc2-Hygro). Reagent: single siRNA against human genes, 0.8 pmol siRNA per well. Timing: 72 h. Measurement: 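Reporter luminescence and viable-cell signal on separate replicate plates, given as percent of non-targeting control and median/MAD z-scores, plus per-cell luciferase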. Scale: total luciferase, z-score and total luciferase, % of control: higher = more reporter protein produced; luciferase per cell, z-score: higher = more reporter output per viable cell; viable cells, % of control: higher = more viable cells. Active means: 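An siRNA counts as active if its total luciferase robust z-score exceeds 3; genes with two or more such siRNAs out of three were retested with fresh siRNAs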. Meaning of the calls: active = raised luciferase; inactive = no rise.
Shown is an unselected part of about 59,000 reagents. Over the whole deposit, about 1,510 (2.6%) are marked active. 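Calls use total luciferase alone and ignore viability, so some active siRNAs may act by altering cell number.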 The numbers tell different reagents against one gene apart.

gene symbol | reagent | total luciferase, z-score | total luciferase, % of control | luciferase per cell, z-score | viable cells, % of control | call
OLFML1 (olfactomedin like 1) | 1 | -0.324 | 75.4 | -0.547 | 97.3 | inactive
OLFML1 (olfactomedin like 1) | 2 | -0.733 | 67.3 | 0.381 | 68 | inactive
OLFML1 (olfactomedin like 1) | 3 | -1.75 | 47 | -1.03 | 69 | inactive
ENPP6 (ectonucleotide pyrophosphatase/phosphodiesterase 6) | 1 | -0.286 | 76.2 | -0.283 | 91.7 | inactive
ENPP6 (ectonucleotide pyrophosphatase/phosphodiesterase 6) | 2 | 0.192 | 85.7 | 0.275 | 89.1 | inactive
ENPP6 (ectonucleotide pyrophosphatase/phosphodiesterase 6) | 3 | 0.619 | 94.2 | 1.2 | 76.7 | inactive
TMX3 (thioredoxin related transmembrane protein 3) | 1 | -0.274 | 76.4 | -0.602 | 100 | inactive
TMX3 (thioredoxin related transmembrane protein 3) | 2 | 0.71 | 96 | 0.268 | 100 | inactive
TMX3 (thioredoxin related transmembrane protein 3) | 3 | 0.0176 | 82.2 | 0.0442 | 90.8 | inactive
NRN1 (neuritin 1) | 1 | 3.78 | 157 | 1.46 | 119 | active
NRN1 (neuritin 1) | 2 | 1.5 | 112 | 1.07 | 94.2 | inactive
NRN1 (neuritin 1) | 3 | 2.07 | 123 | 1.73 | 87.1 | inactive
STXBP3 (syntaxin binding protein 3) | 1 | -1.18 | 58.3 | -0.563 | 75.6 | inactive
STXBP3 (syntaxin binding protein 3) | 2 | 0.101 | 83.9 | 0.361 | 85.2 | inactive
STXBP3 (syntaxin binding protein 3) | 3 | 0.125 | 84.4 | 0.391 | 85.1 | inactive

The list goes on (3 carried over from the part before).
gene symbol | reagent | total luciferase, z-score | total luciferase, % of control | luciferase per cell, z-score | viable cells, % of control | call
STXBP3 (syntaxin binding protein 3) | 1 | -1.18 | 58.3 | -0.563 | 75.6 | inactive
STXBP3 (syntaxin binding protein 3) | 2 | 0.101 | 83.9 | 0.361 | 85.2 | inactive
STXBP3 (syntaxin binding protein 3) | 3 | 0.125 | 84.4 | 0.391 | 85.1 | inactive
ABHD12 (abhydrolase domain containing 12, lysophospholipase) | 1 | -0.415 | 73.6 | -0.992 | 107 | inactive
ABHD12 (abhydrolase domain containing 12, lysophospholipase) | 2 | 1.09 | 104 | 1.35 | 81.2 | inactive
ABHD12 (abhydrolase domain containing 12, lysophospholipase) | 3 | -1.26 | 56.8 | 0.147 | 61 | inactive
MLN (motilin) | 1 | -0.682 | 68.3 | -1.15 | 103 | inactive
MLN (motilin) | 2 | -0.133 | 79.2 | 0.0732 | 86.9 | inactive
MLN (motilin) | 3 | -0.00694 | 81.7 | 0.228 | 86 | inactive
CHD6 (chromodomain helicase DNA binding protein 6) | 1 | 0.084 | 83.6 | 0.00341 | 93.3 | inactive
CHD6 (chromodomain helicase DNA binding protein 6) | 2 | -0.0206 | 81.5 | -1.02 | 119 | inactive
CHD6 (chromodomain helicase DNA binding protein 6) | 3 | -0.336 | 75.2 | -0.27 | 90.2 | inactive
